For assay [1], the target named is T1, low-density lipoprotein receptor-related protein 10 (LRP10), wild type, overexpressed untagged (human) (UniProt Q7Z4F1).
T1 sequence: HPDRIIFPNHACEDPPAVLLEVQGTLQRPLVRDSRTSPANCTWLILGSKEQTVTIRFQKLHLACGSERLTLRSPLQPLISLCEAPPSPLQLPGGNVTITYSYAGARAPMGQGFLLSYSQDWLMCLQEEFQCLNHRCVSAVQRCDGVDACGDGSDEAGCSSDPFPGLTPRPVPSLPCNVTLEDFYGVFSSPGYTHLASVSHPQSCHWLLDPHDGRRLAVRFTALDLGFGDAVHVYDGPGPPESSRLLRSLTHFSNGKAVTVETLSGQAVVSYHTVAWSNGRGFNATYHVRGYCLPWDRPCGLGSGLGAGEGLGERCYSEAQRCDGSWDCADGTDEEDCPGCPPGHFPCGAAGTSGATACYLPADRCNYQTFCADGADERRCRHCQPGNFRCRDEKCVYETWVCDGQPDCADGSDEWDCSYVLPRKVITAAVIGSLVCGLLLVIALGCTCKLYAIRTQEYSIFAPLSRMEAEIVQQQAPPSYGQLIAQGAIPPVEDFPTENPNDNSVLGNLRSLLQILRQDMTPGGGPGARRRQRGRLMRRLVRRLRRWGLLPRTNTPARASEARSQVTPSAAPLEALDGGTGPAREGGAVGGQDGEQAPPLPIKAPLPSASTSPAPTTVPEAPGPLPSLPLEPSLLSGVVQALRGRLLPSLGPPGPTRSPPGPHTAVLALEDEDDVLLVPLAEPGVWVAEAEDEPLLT
The assay is described as follows: co-IP.

In assay [2] the target is T2, low-density lipoprotein receptor-related protein 10 (LRP10), endogenous in iPSC-derived astrocytes (human (endogenous in iPSC-derived astrocytes)) (UniProt Q7Z4F1).
T2 sequence: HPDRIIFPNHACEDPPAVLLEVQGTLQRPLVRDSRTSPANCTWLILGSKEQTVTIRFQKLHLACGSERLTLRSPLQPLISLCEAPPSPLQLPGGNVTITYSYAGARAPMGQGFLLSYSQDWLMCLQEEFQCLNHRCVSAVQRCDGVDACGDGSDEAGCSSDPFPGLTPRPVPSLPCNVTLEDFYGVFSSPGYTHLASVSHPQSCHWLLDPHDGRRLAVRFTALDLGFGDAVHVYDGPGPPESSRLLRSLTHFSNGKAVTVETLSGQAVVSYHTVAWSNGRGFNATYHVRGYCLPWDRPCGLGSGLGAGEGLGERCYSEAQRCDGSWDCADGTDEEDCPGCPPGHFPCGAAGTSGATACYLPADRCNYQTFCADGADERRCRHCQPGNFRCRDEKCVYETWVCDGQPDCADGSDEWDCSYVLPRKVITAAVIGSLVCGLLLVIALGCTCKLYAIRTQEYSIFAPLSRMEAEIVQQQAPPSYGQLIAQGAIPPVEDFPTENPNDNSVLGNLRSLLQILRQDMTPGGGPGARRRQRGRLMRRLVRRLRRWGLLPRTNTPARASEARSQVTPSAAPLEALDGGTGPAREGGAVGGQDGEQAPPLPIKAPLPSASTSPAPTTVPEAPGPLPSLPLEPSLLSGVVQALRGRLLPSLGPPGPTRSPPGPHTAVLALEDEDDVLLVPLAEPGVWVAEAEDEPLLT
The assay is described as follows: co-IP.

Results are given in words; binding and its absence hold for the method and conditions named. Binding seen in cells or lysates may run through a third protein. Some binding calls cover weakened binding; strength is not graded here. For part of these data: Sequences can lack the tags named with a protein.

B1: Nedd4 family-interacting protein 1 (NDFIP1), endogenous in HEK-293T cells (protein, UniProt Q9BT67 1-221)
chain: MALALAALAAVEPACGSRYQQLQNEEESGEPEQAAGDAPPPYSSISAESAAYFDYKDESGFPKPPSYNVATTLPSYDEAERTKAEATIPLVPGRDEDFVGRDDFDDADQLRIGNDGIFMLTFFMAFLFNWIGFFLSFCLTTSAAGRYGAISGFGLSLIKWILIVRFSTYFPGYFDGQYWLWWVFLVLGFLLFLRGFINYAKVRKMPETFSNLPRTRVLFIY
With B1, the binding entry in assay [1] was “binds”.

B2: Nedd4 family-interacting protein 1 (NDFIP1), overexpressed (protein, UniProt Q9BT67 1-221)
chain: MALALAALAAVEPACGSRYQQLQNEEESGEPEQAAGDAPPPYSSISAESAAYFDYKDESGFPKPPSYNVATTLPSYDEAERTKAEATIPLVPGRDEDFVGRDDFDDADQLRIGNDGIFMLTFFMAFLFNWIGFFLSFCLTTSAAGRYGAISGFGLSLIKWILIVRFSTYFPGYFDGQYWLWWVFLVLGFLLFLRGFINYAKVRKMPETFSNLPRTRVLFIY
Take B2: the binding result in assay [1] is recorded as “binds”.

B3: Nedd4 family-interacting protein 1 (NDFIP1), endogenous in iPSC-derived astrocytes (protein, UniProt Q9BT67 1-221)
chain: MALALAALAAVEPACGSRYQQLQNEEESGEPEQAAGDAPPPYSSISAESAAYFDYKDESGFPKPPSYNVATTLPSYDEAERTKAEATIPLVPGRDEDFVGRDDFDDADQLRIGNDGIFMLTFFMAFLFNWIGFFLSFCLTTSAAGRYGAISGFGLSLIKWILIVRFSTYFPGYFDGQYWLWWVFLVLGFLLFLRGFINYAKVRKMPETFSNLPRTRVLFIY
Regarding B3, in assay [2], the binding result is reported as “binds”.

The values above are taken from paper doi:10.1101/2023.11.28.569009.
